Results taken from paper PMC11021233.
Results are given in words; binding and its absence hold for the method and conditions named. Binding seen in cells or lysates may run through a third protein. Some entries that bind do so weakly or less than the wild type.

Protein sequences, listed by entry. Tags and fused reporters are not part of them.
UniProt Q93009: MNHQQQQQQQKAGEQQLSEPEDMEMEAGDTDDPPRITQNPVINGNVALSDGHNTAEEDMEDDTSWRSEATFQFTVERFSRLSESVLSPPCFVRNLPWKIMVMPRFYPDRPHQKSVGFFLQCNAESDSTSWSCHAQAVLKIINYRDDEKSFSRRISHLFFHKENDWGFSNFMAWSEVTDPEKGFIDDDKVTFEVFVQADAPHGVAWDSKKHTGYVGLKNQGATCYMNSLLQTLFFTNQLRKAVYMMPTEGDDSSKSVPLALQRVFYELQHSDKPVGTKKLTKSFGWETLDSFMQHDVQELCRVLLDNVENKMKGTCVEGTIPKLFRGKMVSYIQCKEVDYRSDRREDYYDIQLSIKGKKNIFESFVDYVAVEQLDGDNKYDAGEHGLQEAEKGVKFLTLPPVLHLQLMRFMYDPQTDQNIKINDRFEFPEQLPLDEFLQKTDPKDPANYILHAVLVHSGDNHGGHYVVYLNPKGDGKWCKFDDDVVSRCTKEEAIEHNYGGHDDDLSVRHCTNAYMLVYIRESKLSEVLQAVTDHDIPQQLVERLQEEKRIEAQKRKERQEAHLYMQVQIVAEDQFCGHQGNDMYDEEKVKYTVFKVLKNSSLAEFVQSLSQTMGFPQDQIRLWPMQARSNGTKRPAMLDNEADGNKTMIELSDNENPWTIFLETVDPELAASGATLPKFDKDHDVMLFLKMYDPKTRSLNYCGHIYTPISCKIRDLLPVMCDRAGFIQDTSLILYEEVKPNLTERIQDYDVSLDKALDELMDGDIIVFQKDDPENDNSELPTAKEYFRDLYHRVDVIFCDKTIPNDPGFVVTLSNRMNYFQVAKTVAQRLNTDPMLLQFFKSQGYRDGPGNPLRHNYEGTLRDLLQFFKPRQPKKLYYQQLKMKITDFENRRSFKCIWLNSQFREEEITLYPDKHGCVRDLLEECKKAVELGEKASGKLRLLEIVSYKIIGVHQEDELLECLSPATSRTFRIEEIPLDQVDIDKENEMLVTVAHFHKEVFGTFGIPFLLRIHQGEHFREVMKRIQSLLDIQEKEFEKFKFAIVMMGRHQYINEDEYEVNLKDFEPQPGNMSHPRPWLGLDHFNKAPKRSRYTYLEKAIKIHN

Biological target: ubiquitin specific protease 7 (human (endogenous in the cell lines of the paper; SiHa and HeLa are the CC lines used, not named for the co-IP)) (UniProt Q93009)
Test: co-IP; cell lysate in co-IP buffer (50 mM Tris pH 7.5, 150 mM NaCl, 5 mM EDTA, 1-2% Nonidet P-40, protease inhibitors); anti-USP7 or anti-IgG with protein A + G agarose beads, 4 °C, 4 h; western blotting

binding: binds
B1: Metadherin (protein, UniProt Q86UE4 1-582)
chain: MAARSWQDELAQQAEEGSARLREMLSVGLGFLRTELGLDLGLEPKRYPGWVILVGTGALGLLLLFLLGYGWAAACAGARKKRRSPPRKREEAAAVPAAAPDDLALLKNLRSEEQKKKNRKKLSEKPKPNGRTVEVAEGEAVRTPQSVTAKQPPEIDKKNEKSKKNKKKSKSDAKAVQNSSRHDGKEVDEGAWETKISHREKRQQRKRDKVLTDSGSLDSTIPGIENTITVTTEQLTTASFPVGSKKNKGDSHLNVQVSNFKSGKGDSTLQVSSGLNENLTVNGGGWNEKSVKLSSQISAGEEKWNSVSPASAGKRKTEPSAWSQDTGDANTNGKDWGRSWSDRSIFSGIGSTAEPVSQSTTSDYQWDVSRNQPYIDDEWSGLNGLSSADPNSDWNAPAEEWGNWVDEERASLLKSQEPIPDDQKVSDDDKEKGEGALPTGKSKKKKKKKKKQGEDNSTAQDTEELEKEIREDLPVNTSKTRPKQEKAFSLKTISTSDPAEVLVKNSQPIKTLPPATSTEPSVILSKSDSDKSSSQVPPILQETDKSKSNTKQNSVPPSQTKSETSWESPKQIKKKKKARRET
